# Measurements taken from US12298319B2, “Method for measuring alpha value of muscarinic M1 receptor positive allosteric modulators” (Takeda Pharmaceutical Company Limited, priority 2017, dated 2025).
# Structures can show the parent of a compound that is named as a salt.
# Details: rats, donepezil 0.1 mg/kg p.o., Compound D 0.1 mg/kg p.o.
smiles,measurement,value
"COc1cc2c(cc1OC)C(=O)C(CC1CCN(Cc3ccccc3)CC1)C2 (stereo not shown) [Donepezil, Donepezil hydrochloride]","differences in PK profile of donepezil, alone vs combination with Compound D",No significant differences
